Here are results for 20 substances from PMC8456958 (Angewandte Chemie (International Ed. in English), 2021).

The nature of series [1]: general procedure: Fmoc solid-phase peptide synthesis; 2-chlorotrityl chloride resin; Rapp S RAM resin (peptide amides, loading 220 µmol/g); Rapp S PHB resins preloaded (pepti); HCTU / diisopropylethyl amine; HATU/diisopropylethyl amine for Fmoc-Bpa-OH. Particulars: for conjugation yield: conjugation step; for cyclisation yield: cyclisation step.
Series [2] can be described thus: general procedure: Fmoc solid-phase peptide synthesis; 2-chlorotrityl resin preloaded with Fmoc-Dab(Boc)-OH; HCTU / diisopropylethyl amine; HATU/diisopropylethyl amine for Fmoc-Bpa-OH. Particulars: whole synthesis, scale 100 µmol, TFA salt.
Series [3] is described as follows: general procedure: Fmoc solid-phase peptide synthesis; chlorotrityl resin preloaded with Fmoc-2-Abu-OH; HCTU / diisopropylethyl amine; HATU/diisopropylethyl amine for Fmoc-Bpa-OH. As to conditions: whole synthesis, scale 200 µmol, TFA salt.
Series [4] can be described thus: general procedure: Fmoc solid-phase peptide synthesis; TentaGel S PHB resin preloaded with Fmoc-Val-OH; HCTU / diisopropylethyl amine; HATU/diisopropylethyl amine for Fmoc-Bpa-OH. Particulars: whole synthesis, scale 150 µmol, TFA salt.
Series [5] can be described thus: general procedure: Fmoc solid-phase peptide synthesis; 2-chlorotrityl resin; HCTU / diisopropylethyl amine; HATU/diisopropylethyl amine for Fmoc-Bpa-OH. As to conditions: whole synthesis, TFA salt.
Setting [6] is: whole synthesis, scale 100 µmol, TFA salt, run 1.
Setting [7] is: whole synthesis, scale 50 µmole, TFA salt.
The mark [8] stands for this setting: whole synthesis, scale 150 µmol, TFA salt.
[9] abbreviates: whole synthesis, scale 150 µmol, TFA salt, run 1.

As for “T-G-R-A-K-R-R-M-Q-Y-N-R-R-ßAla-Lys(N3)-Cys [8]”, in series [1] (setting [6]), the isolated mass is 54.8 mg and the isolated yield came to 19.5%.
Turning to “T-G-R-A-K-R-R-M-Q-Y-N-R-R-ßAla-Lys(N3)-Cys(3-succinimidyl-N- 5-fluorescein) [10]”, the conjugation yield in series [1] (TFA salt, run 1) was found to be 20%.
In the case of “6-Methylheptanoyl-Dab-Thr-Dab-cyclo[Dab-Dab-DLeu-Leu-Dab(4-pentinoyl-Bpa-Met(O2)-Oic-Abu)- Dab-Thr]”, the cyclisation yield in series [1] (TFA salt) was determined as 66%. The step yield in series [1] (late stage modification step, based on crude 38, TFA salt) turned out to be 24%.
With “6-Methylheptanoyl-Dab(T-G-R-A-K-R-R-M-Q-Y-N-R-R-ßAla-norleucinamide(1H-1,2,3-triazol-4- yl)propionyl-Bpa-Met(O2)-Oic-Abu)-Thr-Dab-cyclo[Dab-Dab-DLeu-Leu-Dab-Dab-Thr]”, the conjugation yield in series [1] (TFA salt) is listed as 51%.
“6-Methylheptanoyl-Dab(4-pentinoyl-Bpa-Met(O2)-Oic-Abu)-Thr(tBu)-Dab(Boc)-OH”: the isolated yield in series [1] (whole synthesis, scale 100 µmol, TFA salt) was 22%. In addition, in series [2], the isolated mass is 28.8 mg.
Regarding “6-Methylheptanoyl-Dab(4-pentinoyl-Bpa-Met(O2)-Oic-Abu)-Thr-Dab-cyclo[Dab-Dab-DLeu-Leu-Dab- Dab-Thr]”, the step yield in series [1] (coupling step, based on 16, TFA salt) is recorded as 18% based on 16%.
For Pentinoyl-Bpa-Met(O2)-Oic-Abu-OH, the isolated mass in series [3] was determined as 25.0 mg. Besides, the difficulty met result in series [1] (whole synthesis, TFA salt) is on record as “Fmoc-Bpa-OH, which displayed sluggish reaction, was coupled with HATU/ diisopropylethyl amine as double coupling”. Moreover, in series [1] (whole synthesis, scale 200 µmol, TFA salt), the isolated yield was 16.7%.
In the case of “6-Methylheptanoyl-Dab-Thr-Dab-cyclo[Dab-Dab-DLeu-Leu-Dab-Dab(4-pentinoyl-Bpa-Met(O2)-Oic-Abu)-Thr]”, the cyclisation yield in series [1] (on crude 44, TFA salt) is 67%. Further, the step yield in series [1] (late stage modification step, based on crude cyclized 44, TFA salt) is recorded as 19%.
Consider “6-Methylheptanoyl-Dab(Boc)-Thr(tBu)-Dab(Boc)-Dab(NH2)-Dab(4-pentinoyl-Bpa-Met(O2)-Oic-Abu)- DLeu-Leu-Dab(Boc)-Dab(Boc)-Thr(tBu)-OH”, for which, in series [1] (setting [7]), the crude mass was determined as 73.4 mg and the crude yield is listed as 60%.
On to Pentinoyl-ßAla-Ala-Ala-Pro-Val-OH, for which the isolated mass in series [4] was found to be 48.0 mg. Further, in series [1] (setting [8]), the isolated yield was 63%.
As to “H-cyclo[Dab-Dab(Boc)-DLeu-Leu-Dab(Boc)-Dab(Boc)-Thr(tBu)]”, the cyclisation yield in series [1] (on crude 18, TFA salt) is 61%.
Turning to “T-G-R-A-K-R-R-M-Q-Y-N-R-R-ßAla-Lys(N3) [4]”, in series [1] (setting [9]), the isolated yield was determined as 28.1%.
Turning to “6-Methylheptanoyl-Dab-Thr-Dab(T-G-R-A-K-R-R-M-Q-Y-N-R-R-ßAla-norleucinamide(1H-1,2,3- triazol-4-yl)propionyl-Bpa-Met(O2)-Oic-Abu)-cyclo[Dab-Dab-DLeu-Leu-Dab-Dab-Thr]”, the conjugation yield in series [1] (based on 27, TFA salt) is given as 53% based on 27%.
“6-Methylheptanoyl-Dab(Boc)-Thr(tBu)-Dab(Boc)-Dab(NH2)-Dab(Boc)-DLeu-Leu-Dab(4-pentinoyl- Bpa-Met(O2)-Oic-Abu)-Dab(Boc)-Thr(tBu)-OH”: the crude mass in series [5] (scale 50 µmole) was found to be 84.81 mg. The crude yield in series [1] (setting [7]) came out at 70%.
In the case of “6-Methylheptanoyl-Dab-Thr-Dab-cyclo[Dab-Dab(4-pentinoyl-Bpa-Met(O2)-Oic-Abu)-DLeu-Leu-Dab- Dab-Thr]”, the cyclisation yield in series [1] (based on crude 32, TFA salt) came to 5.9% based on crude 32%.
Consider “6-Methylheptanoyl-Dab-Thr-Dab(4-pentinoyl-Bpa-Met(O2)-Oic-Abu)-cyclo[Dab-Dab-DLeu-Leu-Dab- Dab-Thr]”, for which the step yield in series [1] (late stage modification step, based on 26, TFA salt) was found to be 19% based on 26%.
Regarding “T-G-R-A-K-R-R-M-Q-Y-N-R-R-ßAla-Lys(N3) [5]”, the isolated mass in series [1] (setting [8]) is 87.7 mg. Further, the isolated yield in series [1] (setting [9]) stood at 21.5%.
Consider “Fmoc-Dab(NH2)-Dab(Boc)-DLeu-Leu-Dab(Boc)-Dab(Boc)-Thr(tBu)-OH”, for which, in series [5] (scale 50 µmol), the crude mass was 50.83 mg. Moreover, the crude yield in series [1] (whole synthesis, scale 50 µmol, TFA salt) was 77%.
With “T-G-R-A-K-R-R-M-Q-Y-N-R-R-ßAla-Lys(N3)-Cys [9]”, in series [1] (setting [6]), the isolated mass is recorded as 12.3 mg and the isolated yield stood at 4.4%.
With “T-G-R-A-K-R-R-M-Q-Y-N-R-R-ßAla-Lys(N3)-Cys(3-succinimidyl-N- 5-fluorescein) [11]”, in series [1] (TFA salt, run 1), the conjugation yield was 36%.
